Measurements published in the supplement of paper PMC12819154, “High-throughput peptide-centric local stability assay extends protein–ligand identification to membrane proteins, tissues and bacteria” (Nature Structural & Molecular Biology, 2025).
The list shows a part of the results. Small differences around the control level are noise.

The chains behind the UniProt entries cited, without tags or fusion partners. Where a name states a change or a piece, a line headed by the entry shows the natural chain unless it says otherwise.
UniProt P15032: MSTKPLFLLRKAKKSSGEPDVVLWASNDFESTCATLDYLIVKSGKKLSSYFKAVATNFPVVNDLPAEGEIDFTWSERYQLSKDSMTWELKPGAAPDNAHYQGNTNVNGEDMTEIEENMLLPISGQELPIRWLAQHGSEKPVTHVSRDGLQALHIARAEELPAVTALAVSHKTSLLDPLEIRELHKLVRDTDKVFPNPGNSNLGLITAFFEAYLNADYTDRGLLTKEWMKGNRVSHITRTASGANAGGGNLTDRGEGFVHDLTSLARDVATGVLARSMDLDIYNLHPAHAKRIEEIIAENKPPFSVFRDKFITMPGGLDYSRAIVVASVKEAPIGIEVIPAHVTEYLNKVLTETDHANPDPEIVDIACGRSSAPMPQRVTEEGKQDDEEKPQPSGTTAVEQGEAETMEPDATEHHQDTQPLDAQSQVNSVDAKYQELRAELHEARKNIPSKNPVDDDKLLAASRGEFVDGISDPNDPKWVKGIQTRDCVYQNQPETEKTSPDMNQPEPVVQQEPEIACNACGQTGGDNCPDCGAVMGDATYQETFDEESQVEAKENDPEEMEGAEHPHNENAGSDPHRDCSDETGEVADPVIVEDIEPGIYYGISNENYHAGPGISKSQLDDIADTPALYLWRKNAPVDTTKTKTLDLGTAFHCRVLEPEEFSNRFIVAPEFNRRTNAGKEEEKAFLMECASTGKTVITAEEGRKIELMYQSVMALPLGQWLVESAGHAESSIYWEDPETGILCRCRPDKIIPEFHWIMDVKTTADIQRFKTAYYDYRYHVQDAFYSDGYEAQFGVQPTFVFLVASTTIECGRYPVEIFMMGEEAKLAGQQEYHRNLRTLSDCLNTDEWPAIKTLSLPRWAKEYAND
UniProt P11349: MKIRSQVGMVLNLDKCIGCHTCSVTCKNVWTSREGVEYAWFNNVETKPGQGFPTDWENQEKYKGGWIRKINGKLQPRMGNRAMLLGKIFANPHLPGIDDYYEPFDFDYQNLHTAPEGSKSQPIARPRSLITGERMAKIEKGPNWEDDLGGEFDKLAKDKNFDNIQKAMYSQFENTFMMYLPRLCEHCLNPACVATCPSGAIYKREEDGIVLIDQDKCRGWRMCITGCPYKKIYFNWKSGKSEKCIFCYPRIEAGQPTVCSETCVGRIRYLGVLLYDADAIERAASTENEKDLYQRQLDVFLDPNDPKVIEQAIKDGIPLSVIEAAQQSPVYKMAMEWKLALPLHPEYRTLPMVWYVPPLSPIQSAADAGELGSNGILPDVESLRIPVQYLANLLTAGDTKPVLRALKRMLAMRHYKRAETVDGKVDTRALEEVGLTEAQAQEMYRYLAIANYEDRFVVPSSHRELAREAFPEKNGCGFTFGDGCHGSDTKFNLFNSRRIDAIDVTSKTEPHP
UniProt P11664: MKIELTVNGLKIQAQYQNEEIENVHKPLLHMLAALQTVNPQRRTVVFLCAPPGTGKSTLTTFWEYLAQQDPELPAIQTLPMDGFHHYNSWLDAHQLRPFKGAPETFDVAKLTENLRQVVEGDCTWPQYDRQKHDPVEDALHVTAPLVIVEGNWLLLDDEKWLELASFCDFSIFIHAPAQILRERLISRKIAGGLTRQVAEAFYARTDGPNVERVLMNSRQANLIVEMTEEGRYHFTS
UniProt P21599: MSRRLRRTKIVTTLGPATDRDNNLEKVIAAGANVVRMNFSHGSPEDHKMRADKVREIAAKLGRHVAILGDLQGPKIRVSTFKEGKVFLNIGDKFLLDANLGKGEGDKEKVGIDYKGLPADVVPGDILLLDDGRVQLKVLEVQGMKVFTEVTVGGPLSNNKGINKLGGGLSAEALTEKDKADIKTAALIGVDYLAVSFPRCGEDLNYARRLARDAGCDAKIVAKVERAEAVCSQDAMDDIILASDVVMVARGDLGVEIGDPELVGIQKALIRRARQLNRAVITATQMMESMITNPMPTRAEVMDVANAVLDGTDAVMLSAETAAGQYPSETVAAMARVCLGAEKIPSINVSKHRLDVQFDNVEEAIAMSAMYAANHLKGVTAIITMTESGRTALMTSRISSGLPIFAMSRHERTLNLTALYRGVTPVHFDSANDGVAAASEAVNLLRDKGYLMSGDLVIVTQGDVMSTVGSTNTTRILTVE
UniProt P17169: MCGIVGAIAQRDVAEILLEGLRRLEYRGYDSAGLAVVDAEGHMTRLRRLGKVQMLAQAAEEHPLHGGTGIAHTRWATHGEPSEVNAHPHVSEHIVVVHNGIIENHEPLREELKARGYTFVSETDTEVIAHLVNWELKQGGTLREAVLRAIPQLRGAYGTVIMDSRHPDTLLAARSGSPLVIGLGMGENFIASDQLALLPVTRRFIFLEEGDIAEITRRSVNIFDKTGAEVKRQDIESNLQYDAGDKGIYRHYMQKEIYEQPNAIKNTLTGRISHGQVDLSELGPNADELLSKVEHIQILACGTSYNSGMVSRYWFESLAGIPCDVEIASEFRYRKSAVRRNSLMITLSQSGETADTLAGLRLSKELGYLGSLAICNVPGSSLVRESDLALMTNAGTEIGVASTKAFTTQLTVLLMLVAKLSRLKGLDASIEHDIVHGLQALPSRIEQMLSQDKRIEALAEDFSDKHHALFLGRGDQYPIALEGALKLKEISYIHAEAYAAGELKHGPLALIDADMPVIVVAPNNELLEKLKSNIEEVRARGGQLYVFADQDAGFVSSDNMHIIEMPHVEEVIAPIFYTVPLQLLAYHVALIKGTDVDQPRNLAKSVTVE
UniProt P16926: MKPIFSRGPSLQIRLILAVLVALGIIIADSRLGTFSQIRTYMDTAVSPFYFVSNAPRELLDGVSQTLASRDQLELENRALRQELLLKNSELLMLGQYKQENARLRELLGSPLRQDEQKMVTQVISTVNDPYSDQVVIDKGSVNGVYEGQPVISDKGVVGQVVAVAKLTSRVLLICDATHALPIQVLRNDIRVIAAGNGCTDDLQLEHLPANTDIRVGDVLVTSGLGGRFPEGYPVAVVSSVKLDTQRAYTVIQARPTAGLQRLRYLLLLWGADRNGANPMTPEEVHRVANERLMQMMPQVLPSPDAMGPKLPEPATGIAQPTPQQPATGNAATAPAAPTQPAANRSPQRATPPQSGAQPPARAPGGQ
UniProt P0DSG8: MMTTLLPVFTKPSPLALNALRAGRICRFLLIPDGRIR
UniProt P23917: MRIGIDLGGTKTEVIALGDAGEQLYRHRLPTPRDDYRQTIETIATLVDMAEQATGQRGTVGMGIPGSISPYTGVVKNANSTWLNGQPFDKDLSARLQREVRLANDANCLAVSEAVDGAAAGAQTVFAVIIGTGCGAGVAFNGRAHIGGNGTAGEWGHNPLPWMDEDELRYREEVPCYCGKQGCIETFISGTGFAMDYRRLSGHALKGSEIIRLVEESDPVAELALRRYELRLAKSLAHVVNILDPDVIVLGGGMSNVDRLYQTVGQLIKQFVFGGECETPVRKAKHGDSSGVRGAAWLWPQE
UniProt P16682: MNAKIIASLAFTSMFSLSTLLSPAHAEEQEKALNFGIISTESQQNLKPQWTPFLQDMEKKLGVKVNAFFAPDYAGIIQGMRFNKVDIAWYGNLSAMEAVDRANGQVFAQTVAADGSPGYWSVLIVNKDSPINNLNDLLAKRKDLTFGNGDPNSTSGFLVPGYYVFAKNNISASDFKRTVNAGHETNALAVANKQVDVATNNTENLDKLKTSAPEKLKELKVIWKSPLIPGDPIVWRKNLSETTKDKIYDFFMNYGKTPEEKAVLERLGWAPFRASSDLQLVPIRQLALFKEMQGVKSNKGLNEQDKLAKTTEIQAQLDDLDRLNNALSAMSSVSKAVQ
UniProt P14565: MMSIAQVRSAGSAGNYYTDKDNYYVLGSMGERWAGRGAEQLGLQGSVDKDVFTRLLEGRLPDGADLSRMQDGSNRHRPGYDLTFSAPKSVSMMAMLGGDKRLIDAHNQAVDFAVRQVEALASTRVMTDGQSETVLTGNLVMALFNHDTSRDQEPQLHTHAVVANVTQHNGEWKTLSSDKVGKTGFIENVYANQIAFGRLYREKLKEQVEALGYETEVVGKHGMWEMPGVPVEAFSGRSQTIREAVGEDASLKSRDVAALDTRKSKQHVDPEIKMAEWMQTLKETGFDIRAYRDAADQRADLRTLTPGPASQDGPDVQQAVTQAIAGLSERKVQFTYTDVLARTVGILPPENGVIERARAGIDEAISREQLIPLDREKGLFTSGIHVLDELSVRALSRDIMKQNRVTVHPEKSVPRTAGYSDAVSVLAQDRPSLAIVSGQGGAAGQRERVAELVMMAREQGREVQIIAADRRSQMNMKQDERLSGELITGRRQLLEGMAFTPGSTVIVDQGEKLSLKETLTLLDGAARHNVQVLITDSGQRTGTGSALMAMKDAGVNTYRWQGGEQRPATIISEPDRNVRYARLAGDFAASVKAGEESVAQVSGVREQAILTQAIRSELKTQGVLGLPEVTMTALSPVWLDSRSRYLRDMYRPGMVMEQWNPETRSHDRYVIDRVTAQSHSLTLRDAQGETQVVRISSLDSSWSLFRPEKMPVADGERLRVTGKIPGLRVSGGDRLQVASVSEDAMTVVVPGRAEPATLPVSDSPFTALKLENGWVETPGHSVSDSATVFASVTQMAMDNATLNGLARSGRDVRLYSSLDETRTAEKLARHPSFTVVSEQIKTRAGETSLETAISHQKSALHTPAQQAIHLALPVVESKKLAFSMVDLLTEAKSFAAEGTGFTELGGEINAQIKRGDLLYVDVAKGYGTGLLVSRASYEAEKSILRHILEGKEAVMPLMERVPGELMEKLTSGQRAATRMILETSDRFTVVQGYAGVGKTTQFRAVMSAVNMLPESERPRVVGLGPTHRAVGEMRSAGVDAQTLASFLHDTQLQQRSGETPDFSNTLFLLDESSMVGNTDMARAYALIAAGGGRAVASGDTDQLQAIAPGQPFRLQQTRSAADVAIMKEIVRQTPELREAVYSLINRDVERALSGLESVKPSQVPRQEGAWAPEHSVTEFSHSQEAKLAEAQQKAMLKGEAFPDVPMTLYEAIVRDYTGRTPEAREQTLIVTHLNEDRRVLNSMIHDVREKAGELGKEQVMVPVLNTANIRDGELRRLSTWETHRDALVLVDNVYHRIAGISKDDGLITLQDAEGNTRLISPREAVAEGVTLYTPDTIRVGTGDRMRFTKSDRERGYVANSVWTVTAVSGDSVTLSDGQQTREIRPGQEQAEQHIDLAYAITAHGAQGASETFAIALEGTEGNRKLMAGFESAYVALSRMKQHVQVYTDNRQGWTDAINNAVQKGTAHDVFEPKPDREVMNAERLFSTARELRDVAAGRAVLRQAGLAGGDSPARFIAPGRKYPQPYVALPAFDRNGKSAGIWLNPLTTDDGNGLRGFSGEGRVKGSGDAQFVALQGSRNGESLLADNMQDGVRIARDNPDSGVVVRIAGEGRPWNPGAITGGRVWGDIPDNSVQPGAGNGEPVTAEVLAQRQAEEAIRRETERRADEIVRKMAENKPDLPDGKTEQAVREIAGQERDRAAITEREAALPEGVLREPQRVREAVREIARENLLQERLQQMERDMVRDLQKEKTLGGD
UniProt P18310: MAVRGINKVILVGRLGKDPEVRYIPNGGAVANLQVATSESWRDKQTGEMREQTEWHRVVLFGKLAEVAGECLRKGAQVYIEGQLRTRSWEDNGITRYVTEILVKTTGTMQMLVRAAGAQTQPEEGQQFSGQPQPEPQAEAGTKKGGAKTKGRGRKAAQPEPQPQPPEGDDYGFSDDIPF

Compound: CC1(C)S[C@@H]2[C@H](NC(=O)[C@H](N)c3ccccc3)C(=O)N2[C@H]1C(=O)O [ampicillin]
Test: log2 fold change of tryptic peptide abundance, ligand vs vehicle (limited proteolysis) (log2 ratio); higher = more trypsin-susceptible (destabilized)
Conditions: ligand concentration: 10 uM; sample: E. coli crude lysate

| Target | log2 fold change |
| --- | --- |
| UniProt P15032 (peptide sequence: DGLQALHIAR, peptide start residue: 147) | 0.919 |
| UniProt P11349 (peptide sequence: CIGCHTCSVTCKNVWTSR, peptide start residue: 16) | -0.592 |
| UniProt P11664 (peptide sequence: TVVFLCAPPGTGK, peptide start residue: 44) | -0.215 |
| UniProt P21599 (peptide sequence: LGGGLSAEALTEKDK, peptide start residue: 165) | 0.5 |
| UniProt P17169 (peptide sequence: LKGLDASIEHDIVHGLQALPSR, peptide start residue: 423) | 0.815 |
| UniProt P16926 (peptide sequence: ELLGSPLR, peptide start residue: 106) | 0.44 |
| UniProt P0DSG8 (peptide sequence: FLLIPDGR, peptide start residue: 28) | -0.138 |
| UniProt P23917 (peptide sequence: YREEVPCYCGK, peptide start residue: 170) | -0.066 |
| UniProt P16682 (peptide sequence: NLSETTKDK, peptide start residue: 238) | 0.078 |
| UniProt P14565 (peptide sequence: VPGELMEK, peptide start residue: 961) | -0.0796 |
| UniProt P18310 (peptide sequence: LGKDPEVR, peptide start residue: 15) | -0.312 |
